The supplement of paper PMC11732987, “Enantioselective OTUD7B fragment discovery through chemoproteomics screening and high-throughput optimisation” (Communications Chemistry, 2025)
This is one part of the list. The data scatter; read single values as rough.

Chains of the proteins cited; added tags and fusions are not shown. Lines headed by an entry give the natural chain unless they say otherwise; changes in a name come on top. Residues count along the entry.
UniProt P50402, 119-150: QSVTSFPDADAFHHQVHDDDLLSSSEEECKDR
UniProt P25116: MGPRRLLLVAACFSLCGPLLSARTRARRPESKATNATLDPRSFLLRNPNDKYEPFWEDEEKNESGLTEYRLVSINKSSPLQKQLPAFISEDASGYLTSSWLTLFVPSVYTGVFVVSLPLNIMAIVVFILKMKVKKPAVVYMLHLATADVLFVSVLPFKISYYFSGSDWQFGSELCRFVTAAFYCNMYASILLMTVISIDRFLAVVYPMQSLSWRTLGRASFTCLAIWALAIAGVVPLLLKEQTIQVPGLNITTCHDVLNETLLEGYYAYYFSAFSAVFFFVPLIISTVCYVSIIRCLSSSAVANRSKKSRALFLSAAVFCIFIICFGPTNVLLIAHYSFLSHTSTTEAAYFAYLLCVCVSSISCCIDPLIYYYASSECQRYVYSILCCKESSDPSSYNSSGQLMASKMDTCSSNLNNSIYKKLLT
UniProt O00471: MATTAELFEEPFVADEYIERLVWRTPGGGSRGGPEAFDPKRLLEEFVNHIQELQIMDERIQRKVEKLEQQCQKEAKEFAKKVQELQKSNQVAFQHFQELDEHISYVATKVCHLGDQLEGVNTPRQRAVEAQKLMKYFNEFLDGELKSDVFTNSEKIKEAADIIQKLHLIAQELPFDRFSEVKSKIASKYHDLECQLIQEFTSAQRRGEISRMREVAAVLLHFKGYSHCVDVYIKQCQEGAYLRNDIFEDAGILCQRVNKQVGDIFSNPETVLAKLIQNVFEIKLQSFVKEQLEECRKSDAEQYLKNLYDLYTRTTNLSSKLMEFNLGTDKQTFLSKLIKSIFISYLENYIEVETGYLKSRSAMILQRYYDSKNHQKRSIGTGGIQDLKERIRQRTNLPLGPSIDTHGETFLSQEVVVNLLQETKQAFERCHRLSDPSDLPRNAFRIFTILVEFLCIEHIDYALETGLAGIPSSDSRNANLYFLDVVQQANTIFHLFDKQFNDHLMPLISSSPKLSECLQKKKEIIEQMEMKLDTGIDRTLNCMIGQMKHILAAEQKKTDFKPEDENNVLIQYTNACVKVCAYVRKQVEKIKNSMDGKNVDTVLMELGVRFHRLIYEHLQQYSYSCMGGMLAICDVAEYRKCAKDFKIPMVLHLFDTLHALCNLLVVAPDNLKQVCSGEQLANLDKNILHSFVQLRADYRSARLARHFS
UniProt A1L3X0: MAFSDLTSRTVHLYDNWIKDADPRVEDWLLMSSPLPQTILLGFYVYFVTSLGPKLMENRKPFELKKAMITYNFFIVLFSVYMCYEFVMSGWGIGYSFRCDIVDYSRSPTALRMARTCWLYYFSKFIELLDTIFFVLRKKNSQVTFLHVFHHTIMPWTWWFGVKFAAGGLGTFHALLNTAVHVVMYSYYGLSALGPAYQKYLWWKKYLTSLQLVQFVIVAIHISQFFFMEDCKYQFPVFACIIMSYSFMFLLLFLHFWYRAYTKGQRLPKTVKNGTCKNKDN
UniProt Q96AY2: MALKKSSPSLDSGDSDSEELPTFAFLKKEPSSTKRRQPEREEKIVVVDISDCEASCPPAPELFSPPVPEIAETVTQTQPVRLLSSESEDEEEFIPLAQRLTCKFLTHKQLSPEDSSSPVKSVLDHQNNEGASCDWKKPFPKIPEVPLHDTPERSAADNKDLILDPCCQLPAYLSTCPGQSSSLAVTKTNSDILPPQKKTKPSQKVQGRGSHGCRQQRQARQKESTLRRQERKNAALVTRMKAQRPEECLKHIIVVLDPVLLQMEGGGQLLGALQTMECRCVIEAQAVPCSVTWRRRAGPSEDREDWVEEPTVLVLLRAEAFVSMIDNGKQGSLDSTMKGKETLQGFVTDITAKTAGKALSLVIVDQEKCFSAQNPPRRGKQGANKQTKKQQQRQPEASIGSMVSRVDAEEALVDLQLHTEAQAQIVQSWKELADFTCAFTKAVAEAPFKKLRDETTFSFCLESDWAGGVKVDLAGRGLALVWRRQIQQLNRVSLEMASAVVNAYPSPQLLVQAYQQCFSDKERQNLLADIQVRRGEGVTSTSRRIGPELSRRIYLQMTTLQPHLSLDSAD
UniProt Q8IV48: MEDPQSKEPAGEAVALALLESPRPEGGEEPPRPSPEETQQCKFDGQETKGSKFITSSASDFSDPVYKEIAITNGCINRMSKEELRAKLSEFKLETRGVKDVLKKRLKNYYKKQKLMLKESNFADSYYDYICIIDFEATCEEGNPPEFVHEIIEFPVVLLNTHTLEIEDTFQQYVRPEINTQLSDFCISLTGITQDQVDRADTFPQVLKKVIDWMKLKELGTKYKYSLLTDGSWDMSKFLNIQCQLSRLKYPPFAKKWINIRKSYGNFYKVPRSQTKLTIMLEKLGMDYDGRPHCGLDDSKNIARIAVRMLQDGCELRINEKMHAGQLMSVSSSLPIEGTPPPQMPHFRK
UniProt Q658Y4: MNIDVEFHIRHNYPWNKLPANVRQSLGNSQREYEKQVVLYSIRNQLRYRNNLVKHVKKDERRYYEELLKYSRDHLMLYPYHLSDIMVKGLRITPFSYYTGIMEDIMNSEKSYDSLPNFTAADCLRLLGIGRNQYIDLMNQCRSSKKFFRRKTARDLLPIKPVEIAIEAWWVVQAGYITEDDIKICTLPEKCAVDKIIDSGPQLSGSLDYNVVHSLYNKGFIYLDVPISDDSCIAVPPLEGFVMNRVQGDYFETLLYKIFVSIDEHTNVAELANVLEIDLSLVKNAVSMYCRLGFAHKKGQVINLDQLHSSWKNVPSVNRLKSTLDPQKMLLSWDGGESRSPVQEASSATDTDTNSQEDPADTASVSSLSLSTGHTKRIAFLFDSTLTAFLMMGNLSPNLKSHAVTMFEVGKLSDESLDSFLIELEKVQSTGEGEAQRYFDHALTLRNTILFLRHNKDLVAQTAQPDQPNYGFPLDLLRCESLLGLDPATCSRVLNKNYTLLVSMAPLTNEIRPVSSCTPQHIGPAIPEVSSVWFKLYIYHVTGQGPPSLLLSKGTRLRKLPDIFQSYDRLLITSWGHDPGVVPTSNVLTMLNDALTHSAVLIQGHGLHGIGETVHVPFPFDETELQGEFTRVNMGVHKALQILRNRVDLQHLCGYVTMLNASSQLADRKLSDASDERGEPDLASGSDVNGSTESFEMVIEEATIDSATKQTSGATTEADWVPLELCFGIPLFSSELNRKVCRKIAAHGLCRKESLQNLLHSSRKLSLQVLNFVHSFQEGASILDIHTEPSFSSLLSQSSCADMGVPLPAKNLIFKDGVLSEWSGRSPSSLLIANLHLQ
UniProt P29323: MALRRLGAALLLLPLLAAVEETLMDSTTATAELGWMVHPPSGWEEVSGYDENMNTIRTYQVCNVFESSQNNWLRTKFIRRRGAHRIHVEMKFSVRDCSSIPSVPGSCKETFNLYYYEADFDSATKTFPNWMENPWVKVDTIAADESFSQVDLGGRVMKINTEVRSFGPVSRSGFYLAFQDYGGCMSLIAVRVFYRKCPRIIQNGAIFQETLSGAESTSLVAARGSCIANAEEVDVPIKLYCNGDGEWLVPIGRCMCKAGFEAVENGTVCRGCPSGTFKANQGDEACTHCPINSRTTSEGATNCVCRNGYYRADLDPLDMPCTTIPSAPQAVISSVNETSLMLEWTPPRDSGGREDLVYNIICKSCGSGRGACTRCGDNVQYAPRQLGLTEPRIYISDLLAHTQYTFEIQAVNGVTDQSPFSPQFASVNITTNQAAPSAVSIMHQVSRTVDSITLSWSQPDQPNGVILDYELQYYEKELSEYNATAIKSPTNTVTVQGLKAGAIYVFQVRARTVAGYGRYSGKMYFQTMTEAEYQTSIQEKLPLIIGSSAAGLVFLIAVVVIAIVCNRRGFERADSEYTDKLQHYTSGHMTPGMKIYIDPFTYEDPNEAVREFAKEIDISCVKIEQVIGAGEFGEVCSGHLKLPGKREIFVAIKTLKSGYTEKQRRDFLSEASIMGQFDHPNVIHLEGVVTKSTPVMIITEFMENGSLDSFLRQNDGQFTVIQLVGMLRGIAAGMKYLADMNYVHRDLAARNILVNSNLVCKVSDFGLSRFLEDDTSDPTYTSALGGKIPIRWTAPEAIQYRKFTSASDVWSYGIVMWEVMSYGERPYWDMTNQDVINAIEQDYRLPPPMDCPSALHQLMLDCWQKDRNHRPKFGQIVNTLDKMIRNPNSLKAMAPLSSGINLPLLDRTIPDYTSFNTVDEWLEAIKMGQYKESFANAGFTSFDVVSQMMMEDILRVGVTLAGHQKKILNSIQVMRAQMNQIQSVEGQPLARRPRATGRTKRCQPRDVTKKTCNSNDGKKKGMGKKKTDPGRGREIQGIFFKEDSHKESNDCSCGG
UniProt Q96B26, whole entry, looked up: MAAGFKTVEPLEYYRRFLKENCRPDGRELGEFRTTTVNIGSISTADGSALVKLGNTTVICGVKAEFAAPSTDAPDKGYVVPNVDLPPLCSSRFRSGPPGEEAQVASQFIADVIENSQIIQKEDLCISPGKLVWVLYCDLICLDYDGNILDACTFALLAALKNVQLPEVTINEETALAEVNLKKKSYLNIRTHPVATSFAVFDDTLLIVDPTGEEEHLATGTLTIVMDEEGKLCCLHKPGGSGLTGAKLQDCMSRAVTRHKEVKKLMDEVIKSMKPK
UniProt Q9NY74: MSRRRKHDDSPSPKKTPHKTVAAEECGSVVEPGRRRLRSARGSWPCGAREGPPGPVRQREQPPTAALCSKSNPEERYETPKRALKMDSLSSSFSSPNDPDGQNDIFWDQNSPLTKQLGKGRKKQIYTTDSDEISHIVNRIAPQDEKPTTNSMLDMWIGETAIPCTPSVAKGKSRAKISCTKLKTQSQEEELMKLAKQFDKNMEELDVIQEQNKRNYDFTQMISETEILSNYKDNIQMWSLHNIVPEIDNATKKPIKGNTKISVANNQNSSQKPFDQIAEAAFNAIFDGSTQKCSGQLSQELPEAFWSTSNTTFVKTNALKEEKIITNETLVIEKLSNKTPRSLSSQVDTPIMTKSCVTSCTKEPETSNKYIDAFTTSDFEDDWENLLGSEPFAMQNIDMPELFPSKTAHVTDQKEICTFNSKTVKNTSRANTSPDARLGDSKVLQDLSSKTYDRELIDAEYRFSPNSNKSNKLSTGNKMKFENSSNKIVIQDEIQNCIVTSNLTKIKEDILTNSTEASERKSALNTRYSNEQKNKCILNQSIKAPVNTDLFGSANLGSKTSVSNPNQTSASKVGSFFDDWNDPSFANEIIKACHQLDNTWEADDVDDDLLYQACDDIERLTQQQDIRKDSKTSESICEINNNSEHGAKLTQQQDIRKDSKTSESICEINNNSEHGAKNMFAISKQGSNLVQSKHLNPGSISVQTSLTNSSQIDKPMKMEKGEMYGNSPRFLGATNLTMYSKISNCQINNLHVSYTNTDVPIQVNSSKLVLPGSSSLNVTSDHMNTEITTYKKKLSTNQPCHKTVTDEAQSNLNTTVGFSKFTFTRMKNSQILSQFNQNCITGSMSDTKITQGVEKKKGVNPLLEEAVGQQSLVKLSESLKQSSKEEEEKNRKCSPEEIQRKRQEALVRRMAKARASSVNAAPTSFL
UniProt O75460: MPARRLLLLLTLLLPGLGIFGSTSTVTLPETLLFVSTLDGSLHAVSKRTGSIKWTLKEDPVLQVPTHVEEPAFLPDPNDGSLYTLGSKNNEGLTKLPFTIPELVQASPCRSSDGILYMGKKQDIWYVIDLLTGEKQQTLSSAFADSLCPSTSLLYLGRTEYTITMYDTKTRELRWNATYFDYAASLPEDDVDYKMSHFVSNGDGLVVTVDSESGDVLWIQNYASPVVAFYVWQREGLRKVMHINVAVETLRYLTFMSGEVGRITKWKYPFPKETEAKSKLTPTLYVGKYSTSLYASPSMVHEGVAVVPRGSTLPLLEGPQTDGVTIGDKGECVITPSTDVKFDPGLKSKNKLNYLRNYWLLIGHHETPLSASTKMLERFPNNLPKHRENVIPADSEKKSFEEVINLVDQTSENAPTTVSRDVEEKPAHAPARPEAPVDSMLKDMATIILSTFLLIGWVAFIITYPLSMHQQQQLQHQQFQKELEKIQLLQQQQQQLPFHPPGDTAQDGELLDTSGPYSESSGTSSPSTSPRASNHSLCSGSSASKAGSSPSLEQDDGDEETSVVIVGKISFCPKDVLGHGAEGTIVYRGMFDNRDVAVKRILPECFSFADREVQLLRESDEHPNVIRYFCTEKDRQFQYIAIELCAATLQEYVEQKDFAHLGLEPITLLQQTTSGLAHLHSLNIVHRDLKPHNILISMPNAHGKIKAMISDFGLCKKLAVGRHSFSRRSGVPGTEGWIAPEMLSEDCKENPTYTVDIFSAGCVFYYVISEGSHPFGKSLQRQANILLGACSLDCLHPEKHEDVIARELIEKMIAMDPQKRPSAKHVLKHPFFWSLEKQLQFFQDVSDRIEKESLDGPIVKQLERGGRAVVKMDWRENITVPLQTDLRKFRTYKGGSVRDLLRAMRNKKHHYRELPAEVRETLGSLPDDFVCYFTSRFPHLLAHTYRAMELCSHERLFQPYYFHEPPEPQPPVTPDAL
UniProt P42566, 817-836: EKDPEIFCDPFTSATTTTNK

What follows are targets tested with ClCC(=O)N[C@H]1CCCc2ccccc12 (assay: log2 mean competition ratio of IA-DTB cysteine labelling (DMSO/compound) (log2 ratio); higher = stronger cysteine engagement by compound). Details: 50 µM; treatment time: 4 h; cell line lysate: HEK293T.
Method: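 IA-DTB competitive cysteine chemoproteomics in HEK293T RIPA lysate. Lysates were treated with compound 29 or 30 at 50 or 200 µM for 4 h, then IA-DTB (500 µM, 1 h), trypsin-digested, NeutrAvidin-enriched and analysed by diaPASEF. Competition ratio = intensity DMSO / intensity compound (n=4 treated, n=64 DMSO); binding: mean log2 CR ≥ 1 and p ≤ 0.05 plus QC filters. Target is the cysteine site.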

Target	log2 mean competition ratio
EMILIN3 C330	-0.368
EMD C147 (UniProt P50402)	0.224
ETF1 C302 (UniProt P62495)	-0.485
F2R C296 (UniProt P25116)	-0.233
EXOSC10 C73 (UniProt Q01780)	0.466
ELP1 C213 (UniProt O95163)	0.3
FAM120B C499 (UniProt Q96EK7)	0.00763
EXOC5 C295 (UniProt O00471)	-0.0368
ELOVL7 C99 (UniProt A1L3X0)	0.0198
EME1 C248 (UniProt Q96AY2)	-0.0118
FANCI C875 (UniProt Q9NVI1)	-0.121
ERI1 C75 (UniProt Q8IV48)	0.621
FAM91A1 C141 (UniProt Q658Y4)	0.0793
EPHB2 C620 (UniProt P29323)	-0.512
EXOSC8 C22 (UniProt Q96B26)	-0.266
ELP2 C586 (UniProt Q6IA86)	0.0736
ETAA1 C637(C666) (UniProt Q9NY74)	-0.305
ERCC6L C587 (UniProt Q2NKX8)	-0.281
ERN1 C538 (UniProt O75460)	0.207
EPS15 C824 (UniProt P42566)	-0.331

Same assay, conditions: 200 µM; treatment time: 4 h; cell line lysate: HEK293T

Target	log2 mean competition ratio
EMILIN3 C330	0.26
EMD C147 (UniProt P50402)	-0.047
ETF1 C302 (UniProt P62495)	-0.17
F2R C296 (UniProt P25116)	-0.199
EXOSC10 C73 (UniProt Q01780)	-0.0793
ELP1 C213 (UniProt O95163)	-0.193
FAM120B C499 (UniProt Q96EK7)	0.0977
EXOC5 C295 (UniProt O00471)	0.0869
ELOVL7 C99 (UniProt A1L3X0)	-0.057
EME1 C248 (UniProt Q96AY2)	-0.0295
FANCI C875 (UniProt Q9NVI1)	0.00585
ERI1 C75 (UniProt Q8IV48)	0.134
FAM91A1 C141 (UniProt Q658Y4)	0.23
EPHB2 C620 (UniProt P29323)	0.0189
EXOSC8 C22 (UniProt Q96B26)	0.298
ELP2 C586 (UniProt Q6IA86)	-0.0475
ETAA1 C637(C666) (UniProt Q9NY74)	0.0193
ERCC6L C587 (UniProt Q2NKX8)	0.0152
ERN1 C538 (UniProt O75460)	-0.299
EPS15 C824 (UniProt P42566)	-0.0982
